Test system: MIAPACA2 cells
Experiment: Pulse-chase study with tyrosine-derived intermediates after two weeks of 13C9-Tyr labelling
Assay type: cell-based, human
Settings: 24 hours
Experimental: To test if the 4-HMA pathway was directly involved in CoQ10 biosynthesis, cells were labelled with ^13C[…] for two weeks, followed by a chase with non-labelled (12C)-Tyr, (12C)-4-HPPA, (12C)-4-HPLA, (12C)-4-HMA and (12C)-4-HB for 24 hours (FIG. 11I). […] This was consistent with 4-HPPA being downstream of Tyr and upstream of intermediates involved in 4-HB synthesis. […] This placed 4-HMA downstream of 4-HPPA. […] Using the same experimental scheme, the incorporation of Tyr-derived metabolites into CoQ10 was measured. After cells were grown for two weeks in ^13C[…] media, approximately 60% of the intracellular CoQ10 pool was labelled. Based on previous 24 hour labelling experiments, CoQ10 was expected to be fully labelled with ^13C[…] after two weeks at 21% O2. […] After switching two-week ^13C[…] labelled cells from ^13C9- to ^[…][…] for 24 hours, a 20% increase in non-labelled CoQ10 was observed. Addition of 4-[…] and 4-HB in the presence of ^13C[…] increased the fraction and levels of unlabelled CoQ10 by 30% (FIG. 11K). […] For metabolomics, briefly, cells were washed in 4° C. 0.9% saline and metabolites were extracted with 46% methanol:23% H2O:[…] chloroform that contained a labelled amino acid standard mix (MSK-A2-1.2, Cambridge Isotope Laboratories, Inc.). […] Peak heights were analyzed using Xcalibur (ThermoFisher Scientific). […]

Q: How did the “effect on 4-HB levels” value (exogenous metabolite) turn out when O=C(O)C(=O)Cc1ccc(O)cc1 [Metabolite 4-HPPA, 4-hydroxyphenylpyruvate] was run?
A: minimal effect

Q: And the “effect on intracellular levels of the other Tyr-derived metabolites” value (exogenous unlabelled metabolite)?
A: increased the downstream metabolites 4-HPLA, 4-HMA, but not Tyr

— patent US12558329B2, “Methods and compositions for treating 4-hydroxyphenylpyruvate dioxygenase-like (HPDL)-related diseases or disorders” (New York University, priority 2021, dated 2026)
